The source of these data is PubChem BioAssay AID222 (DTP/NCI, 2004).

The list shows only some results of the screen, not a fair sample: it gathers tests that were run many times, whatever their T/C, doses with no T/C, and many T/C values between a quarter and a half above the control. Further doses and runs are listed elsewhere. T/C: endpoint of the treated group in % of that of the vehicle group. Some doses have a count of surviving animals in place of a T/C: the source files T/C as zero there, which appears to mark a toxic dose or a test without result, not a measured value. Some survivor counts are full or nearly so, which does not show that the dose was tolerated: survival well below the control is almost never listed, so the zero probably covers shortened survival too. Survivors were counted at the toxicity check, usually on the fifth day, unless a day is given; later deaths do not show. Schedule codes are those of the source, read here as Q, the interval in days (D) or hours (H), X, the number of doses. Some doses were run more than once; the values are given in rising order. Some schedule codes hold Z or #, which are not explained here. Where survival is the endpoint, the PubChem record calls one and a half times the control and up active, and a quarter to a half above the control has no call in these data; cut-offs in other NCI protocols can differ. Some T/C values carry the count of animals alive at the toxicity check (mostly the fifth day); without a count, all were alive then. Marks such as (2×) stand for listed records that agree.

For the assay, the system named is C57BL/6 mice, intracerebral ependymoblastoma, median survival T/C. Nature of the assay: NCI In Vivo Anticancer Drug Screen. Data for tumor model Ependymoblastoma (intracerebral) in C57BL/6 mice. The following applies: T/C endpoint: median survival time, higher T/C = longer survival. The protocol:
The antitumor activity of compounds was measured in mice bearing transplantable tumors. Survival or tumor size were measured and the results are expressed as the measurement made in the treated group (T) divided by the measurement made in the vehicle treated control group (C). The tumor model used in this assay is Ependymoblastoma (intracerebral) in C57BL/6 mice

[1] abbreviates: dose: 256.0 mg/kg/injection, schedule: Q01DX001 (ip), vehicle: Klucel (hydroxypropylcellulose) (HPC).
Where [2] appears, read: dose: 4.0 mg/kg/injection, schedule: Q01DX005 (ip), vehicle: Klucel (hydroxypropylcellulose) (HPC).
The mark [3] stands for this setting: dose: 16.0 mg/kg/injection, schedule: Q01DX005 (ip), vehicle: Klucel (hydroxypropylcellulose) (HPC).
[4] abbreviates: dose: 32.0 mg/kg/injection, schedule: Q01DX005 (ip), vehicle: Klucel (hydroxypropylcellulose) (HPC).
Setting [5] is: dose: 64.0 mg/kg/injection, schedule: Q01DX005 (ip), vehicle: Klucel (hydroxypropylcellulose) (HPC).
The mark [6] stands for this setting: dose: 256.0 mg/kg/injection, schedule: Q01DX001 (oral), vehicle: Klucel (hydroxypropylcellulose) (HPC).
[7] abbreviates: dose: 256.0 mg/kg/injection, schedule: Q01DX005 (ip), vehicle: Klucel (hydroxypropylcellulose) (HPC).
Where [8] appears, read: dose: 1024.0 mg/kg/injection, schedule: Q01DX005 (ip), vehicle: Klucel (hydroxypropylcellulose) (HPC).
The mark [9] stands for this setting: dose: 6.0 mg/kg/injection, schedule: Q01DX005 (ip), vehicle: saline.

For `Cc1c2ccncc2c(C)c2c1[nH]c1ccccc12`, the survivor count by setting is: under setting [1], 9 of 10; (dose: 512.0 mg/kg/injection, schedule: Q01DX001 (ip), vehicle: Klucel (hydroxypropylcellulose) (HPC)) 9 of 10; (dose: 768.0 mg/kg/injection, schedule: Q01DX001 (ip), vehicle: Klucel (hydroxypropylcellulose) (HPC)) 9 of 10.
On to `CCC1=C[C@H]2CN(CCc3c([nH]c4ccccc34)[C@@](C(=O)OC)(c3cc4c(cc3OC)N(C)[C@H]3[C@@](O)(C(=O)OC)[C@H](OC(C)=O)[C@]5(CC)C=CCN6CC[C@]43[C@@H]65)C2)C1`, for which the survivor count (dose: 3.2 mg/kg/injection, schedule: Q01DX005 (ip), vehicle: saline) is on record as 6 of 6; the survivor count (dose: 6.4 mg/kg/injection, schedule: Q01DX005 (ip), vehicle: saline) is 5 of 6; the survivor count (dose: 12.8 mg/kg/injection, schedule: Q01DX005 (ip), vehicle: saline) was 2 of 6.
Regarding `O=c1[nH]cc(F)c(=O)[nH]1`, the survivor count (dose: 40.0 mg/kg/injection, schedule: Q01DX005 (ip), vehicle: saline) is 6 of 6.
`CC(=O)CC(c1ccccc1)c1c(O)c2ccccc2oc1=O` (stereo unspecified): the survivor count (dose: 0.72 mg/kg/injection, schedule: Q01DX005 (ip), vehicle: saline) is reported as 6 of 10.
On to `Cc1[nH]c(=O)[nH]c(=O)c1N(CCF)CCCl`, for which the T/C by setting is: (dose: 2.0 mg/kg/injection, schedule: Q01DX005 (ip), vehicle: Klucel (hydroxypropylcellulose) (HPC)) 103, 104, 106, 113 % of control; under setting [2], 97, 100, 101, 107, 111 % of control; (dose: 8.0 mg/kg/injection, schedule: Q01DX005 (ip), vehicle: Klucel (hydroxypropylcellulose) (HPC)) 100, 105, 110, 111, 269 % of control [9 of 10 alive]; (dose: 16.0 mg/kg/injection, schedule: Q01DX001 (ip), vehicle: Klucel (hydroxypropylcellulose) (HPC)) 125 % of control; under setting [3], 99, 102, 104, 106, 269 % of control; under setting [4], 108 and 112 % of control. In addition, the T/C under setting [5] is 119 % of control. The survivor count is 9 of 10 (dose: 16.0 mg/kg/injection, schedule: Q## X006 (ip), vehicle: Klucel (hydroxypropylcellulose) (HPC)); 9 of 10 and 10 of 10 under setting [4]; 7 of 10 and 8 of 10 (dose: 32.0 mg/kg/injection, schedule: Q01DX005 (ip), vehicle: saline with Tween-80); 5 of 10 (dose: 32.0 mg/kg/injection, schedule: Q## X006 (ip), vehicle: Klucel (hydroxypropylcellulose) (HPC)); 5 of 10 (dose: 64.0 mg/kg/injection, schedule: Q01DX001 (ip), vehicle: Klucel (hydroxypropylcellulose) (HPC)); 0 of 10 and 4 of 10 under setting [5]. For the same compound, the survivor count reads like this: (dose: 64.0 mg/kg/injection, schedule: Q01DX005 (ip), vehicle: saline with Tween-80) 0 of 10 and 5 of 10; (dose: 64.0 mg/kg/injection, schedule: Q01DX005 (oral), vehicle: Klucel (hydroxypropylcellulose) (HPC)) 7 of 10; (dose: 64.0 mg/kg/injection, schedule: Q## X006 (ip), vehicle: Klucel (hydroxypropylcellulose) (HPC)) 1 of 10; (dose: 64.0 mg/kg/injection, schedule: Q#A X002 (ip), vehicle: Klucel (hydroxypropylcellulose) (HPC)) 0 of 10; (dose: 128.0 mg/kg/injection, schedule: Q01DX001 (ip), vehicle: Klucel (hydroxypropylcellulose) (HPC)) 0 of 10 and 3 of 10; (dose: 128.0 mg/kg/injection, schedule: Q01DX001 (oral), vehicle: Klucel (hydroxypropylcellulose) (HPC)) 3 of 10. Besides, the survivor count was 0 of 10 (dose: 128.0 mg/kg/injection, schedule: Q01DX005 (oral), vehicle: Klucel (hydroxypropylcellulose) (HPC)); 0 of 10 (dose: 128.0 mg/kg/injection, schedule: Q#A X002 (ip), vehicle: Klucel (hydroxypropylcellulose) (HPC)); 0 of 10 and 1 of 10 under setting [1]; 3 of 10 under setting [6]; 0 of 10 (dose: 256.0 mg/kg/injection, schedule: Q01DX005 (oral), vehicle: Klucel (hydroxypropylcellulose) (HPC)); 0 of 10 (dose: 512.0 mg/kg/injection, schedule: Q01DX001 (oral), vehicle: Klucel (hydroxypropylcellulose) (HPC)). Moreover, for the setting “dose: 1024.0 mg/kg/injection, schedule: Q01DX001 (oral), vehicle: Klucel (hydroxypropylcellulose) (HPC)”, the survivor count was 0 of 10.
Consider `CCOC(=O)C(C)(C)Oc1ccc(Cl)cc1`, for which the survivor count is on record as 4 of 10 (dose: 400.0 mg/kg/injection, schedule: Q01DX005 (ip), vehicle: saline with Tween-80) and 0 of 10 (dose: 800.0 mg/kg/injection, schedule: Q01DX005 (ip), vehicle: saline with Tween-80).
Take `CCOC(=O)CNC(=O)CCCCSc1ncnc2nc[nH]c12`: the T/C by setting is: under setting [2], 98, 106, 112 % of control; under setting [3], 94 (2×), 101, 104, 110 % of control; under setting [5], 103, 104 (2×), 111 [9 of 10 alive], 113 [9 of 10 alive], 116 % of control; under setting [7], 102 [9 of 10 alive], 106, 111, 117 % of control; (dose: 512.0 mg/kg/injection, schedule: Q01DX005 (ip), vehicle: Klucel (hydroxypropylcellulose) (HPC)) 127 % of control; under setting [8], 118 and 130 % of control. The survivor count is on record as 10 of 10 under setting [2]; 2 of 10 under setting [6]; 0 of 10, 9 of 10, 10 of 10 under setting [8]; 10 of 10 (dose: 1024.0 mg/kg/injection, schedule: Q01DX005 (ip), vehicle: saline); 8 of 10 (dose: 2048.0 mg/kg/injection, schedule: Q01DX005 (ip), vehicle: saline).
As to `Nc1ncn(C2OC(CO)C(O)C2O)c(=O)n1` (stereo unspecified), the T/C reads like this: (dose: 0.75 mg/kg/injection, schedule: Q01DX005 (ip), vehicle: saline) 108 (2×), 114, 125 % of control; (dose: 1.5 mg/kg/injection, schedule: Q01DX005 (ip), vehicle: saline) 101, 115 (2×), 132 % of control [9 of 10 alive]; (dose: 3.0 mg/kg/injection, schedule: Q01DX005 (ip), vehicle: saline) 102, 106, 114, 126 % of control; under setting [9], 122 and 129 % of control. Also, the survivor count under setting [9] is reported as 10 of 10.
For the compound `Nc1nc(=S)c2ncn(C3OC(COC(=O)c4ccc(Cl)cc4)C(OC(=O)c4ccc(Cl)cc4)C3OC(=O)c3ccc(Cl)cc3)c2[nH]1` (stereo unspecified), the survivor count (dose: 75.0 mg/kg/injection, schedule: Q01DX005 (ip), vehicle: Klucel (hydroxypropylcellulose) (HPC)) is on record as 9 of 10 and the survivor count (dose: 150.0 mg/kg/injection, schedule: Q01DX005 (ip), vehicle: Klucel (hydroxypropylcellulose) (HPC)) is 10 of 10.
As for `O=c1[nH]c(=O)n([C@H]2CCCO2)cc1F`, the survivor count is, setting by setting: (dose: 128.0 mg/kg/injection, schedule: Q01DX005 (ip), vehicle: Klucel (hydroxypropylcellulose) (HPC)) 10 of 10; under setting [7], 10 of 10; (dose: 256.0 mg/kg/injection, schedule: Q01DX005 (ip), vehicle: saline with Tween-80) 10 of 10; (dose: 384.0 mg/kg/injection, schedule: Q01DX005 (ip), vehicle: saline with Tween-80) 7 of 10.
In the case of `S=c1nc[nH]c2nc[nH]c12`, the survivor count was 10 of 10 (dose: 40.0 mg/kg/injection, schedule: Q01DX005 (ip), vehicle: Klucel (hydroxypropylcellulose) (HPC)); 10 of 10 (dose: 80.0 mg/kg/injection, schedule: Q01DX005 (ip), vehicle: Klucel (hydroxypropylcellulose) (HPC)); 9 of 10 and 10 of 10 (dose: 160.0 mg/kg/injection, schedule: Q01DX005 (ip), vehicle: Klucel (hydroxypropylcellulose) (HPC)).
